Measured values: the supplement of paper PMC8728848
Some of the results follow.

What was measured:
Experiment in all cases: glycan array binding signal (z-score within array); higher = stronger binding
Details in all cases: glycan notation: IUPAC condensed, linker removed
[1] = target: Gal(b1-4)GlcNAc(b1-2)Man
Outline: (§1)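 The binding signal is a Z-score computed within each array and averaged over linkers. Arrays of the same protein sequence at different concentrations or buffers were also averaged together. Data originate from 3228 arrays in the Consortium for Functional Glycomics database, kept only where the protein sequence was available.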

[2] = target: Gal(b1-4)GlcNAc(b1-2)Man(a1-3)Man(b1-4)GlcNAc(b1-4)GlcNAc
Outline: as §1

[3] = target: Gal(b1-4)GlcNAc(b1-2)Man(a1-3)[Gal(b1-4)GlcNAc(b1-2)Man(a1-6)]Man(b1-4)GlcNAc(b1-4)GlcNAc
Outline: as §1

[4] = target: Gal(b1-4)GlcNAc(b1-2)Man(a1-3)[Gal(b1-4)GlcNAc(b1-2)Man(a1-6)]Man(b1-4)GlcNAc(b1-4)[Fuc(a1-6)]GlcNAc
Outline: as §1

[5] = target: Gal(b1-4)GlcNAc(b1-2)Man(a1-3)[Gal(b1-4)GlcNAc(b1-2)Man(a1-6)][Gal(b1-4)GlcNAc(b1-4)]Man(b1-4)GlcNAc(b1-4)[Fuc(a1-6)]GlcNAc
Outline: as §1

[6] = target: Gal(b1-4)GlcNAc(b1-2)Man(a1-3)[Gal(b1-4)GlcNAc(b1-2)Man(a1-6)][GlcNAc(b1-4)]Man(b1-4)GlcNAc(b1-4)[Fuc(a1-6)]GlcNAc
Outline: as §1

[7] = target: Gal(b1-4)GlcNAc(b1-2)Man(a1-3)[Gal(b1-4)GlcNAc(b1-2)][GlcNAc(b1-4)]Man(b1-4)GlcNAc(b1-4)GlcNAc
Outline: as §1

[8] = target: Gal(b1-4)GlcNAc(b1-2)Man(a1-3)[GlcNAc(b1-2)Man(a1-6)]Man(b1-4)GlcNAc(b1-4)GlcNAc
Outline: as §1

[9] = target: Gal(b1-4)GlcNAc(b1-2)Man(a1-3)[GlcNAc(b1-4)][Gal(b1-4)GlcNAc(b1-2)Man(a1-6)]Man(b1-4)GlcNAc(b1-4)GlcNAc
Outline: as §1

[10] = target: Gal(b1-4)GlcNAc(b1-2)Man(a1-3)[Man(a1-6)]Man(b1-4)GlcNAc(b1-4)GlcNAc
Outline: as §1

[11] = target: Gal(b1-4)GlcNAc(b1-2)Man(a1-6)Man(b1-4)GlcNAc(b1-4)GlcNAc
Outline: as §1

[12] = target: Gal(b1-4)GlcNAc(b1-2)Man(a1-6)[GlcNAc(b1-2)Man(a1-3)]Man(b1-4)GlcNAc(b1-4)GlcNAc
Outline: as §1

[13] = target: Gal(b1-4)GlcNAc(b1-2)Man(a1-6)[Man(a1-3)]Man(b1-4)GlcNAc(b1-4)GlcNAc
Outline: as §1

[14] = target: Gal(b1-4)GlcNAc(b1-2)[Gal(b1-4)GlcNAc(b1-4)]Man(a1-3)[Gal(b1-4)GlcNAc(b1-2)Man(a1-6)]Man(b1-4)GlcNAc(b1-4)GlcNAc
Outline: as §1

[15] = target: Gal(b1-4)GlcNAc(b1-2)[Gal(b1-4)GlcNAc(b1-4)]Man(a1-3)[Gal(b1-4)GlcNAc(b1-2)[Gal(b1-4)GlcNAc(b1-6)]Man(a1-6)]Man(b1-4)GlcNAc(b1-4)GlcNAc
Outline: as §1

[16] = target: Gal(b1-4)GlcNAc(b1-2)[Gal(b1-4)GlcNAc(b1-4)]Man(a1-3)[GlcNAc(b1-4)][Gal(b1-4)GlcNAc(b1-2)Man(a1-6)]Man(b1-4)GlcNAc(b1-4)GlcNAc
Outline: as §1

[17] = target: Gal(b1-4)GlcNAc(b1-2)[Gal(b1-4)GlcNAc(b1-4)]Man(a1-3)[GlcNAc(b1-4)][Gal(b1-4)GlcNAc(b1-2)[Gal(b1-4)GlcNAc(b1-6)]Man(a1-6)]Man(b1-4)GlcNAc(b1-4)GlcNAc
Outline: as §1

[18] = target: Gal(b1-4)GlcNAc(b1-2)[Gal(b1-4)GlcNAc(b1-6)]Man(a1-6)[Gal(b1-4)GlcNAc(b1-2)Man(a1-3)]Man(b1-4)GlcNAc(b1-4)GlcNAc
Outline: as §1

[19] = target: Gal(b1-4)GlcNAc(b1-2)[Gal(b1-4)GlcNAc(b1-6)]Man(a1-6)[Gal(b1-4)GlcNAc(b1-2)Man(a1-3)]Man(b1-4)GlcNAc(b1-4)[Fuc(a1-6)]GlcNAc
Outline: as §1

[20] = target: Gal(b1-4)GlcNAc(b1-2)[Gal(b1-4)GlcNAc(b1-6)]Man(a1-6)[GlcNAc(b1-4)][Gal(b1-4)GlcNAc(b1-2)Man(a1-3)]Man(b1-4)GlcNAc(b1-4)GlcNAc
Outline: as §1

[21] = target: Gal(b1-4)GlcNAc(b1-2)[Gal(b1-4)GlcNAc(b1-6)]Man(a1-6)[GlcNAc(b1-4)][Gal(b1-4)GlcNAc(b1-2)[Gal(b1-4)GlcNAc(b1-4)]Man(a1-3)]Man(b1-4)GlcNAc(b1-4)[Fuc(a1-6)]GlcNAc
Outline: as §1

[22] = target: Gal(b1-4)GlcNAc(b1-3)Gal(b1-3)GalNAc
Outline: as §1

[23] = target: Gal(b1-4)GlcNAc(b1-3)Gal(b1-3)GlcNAc
Outline: as §1

[24] = target: Gal(b1-4)GlcNAc(b1-3)Gal(b1-4)Glc
Outline: as §1

[25] = target: Gal(b1-4)GlcNAc(b1-3)Gal(b1-4)GlcNAc
Outline: as §1

[26] = target: Gal(b1-4)GlcNAc(b1-3)Gal(b1-4)GlcNAc(b1-2)Man(a1-3)[Gal(b1-4)GlcNAc(b1-3)Gal(b1-4)GlcNAc(b1-2)Man(a1-6)]Man(b1-4)GlcNAc(b1-4)GlcNAc
Outline: as §1

[27] = target: Gal(b1-4)GlcNAc(b1-3)Gal(b1-4)GlcNAc(b1-2)Man(a1-3)[Gal(b1-4)GlcNAc(b1-3)Gal(b1-4)GlcNAc(b1-2)Man(a1-6)]Man(b1-4)GlcNAc(b1-4)[Fuc(a1-6)]GlcNAc
Outline: as §1

[28] = target: Gal(b1-4)GlcNAc(b1-3)Gal(b1-4)GlcNAc(b1-2)[Gal(b1-4)GlcNAc(b1-3)Gal(b1-4)GlcNAc(b1-6)]Man(a1-6)[Gal(b1-4)GlcNAc(b1-3)Gal(b1-4)GlcNAc(b1-2)Man(a1-3)]Man(b1-4)GlcNAc(b1-4)GlcNAc
Outline: as §1

[29] = target: Gal(b1-4)GlcNAc(b1-3)Gal(b1-4)GlcNAc(b1-2)[Gal(b1-4)GlcNAc(b1-3)Gal(b1-4)GlcNAc(b1-6)]Man(a1-6)[Gal(b1-4)GlcNAc(b1-3)Gal(b1-4)GlcNAc(b1-2)Man(a1-3)]Man(b1-4)GlcNAc(b1-4)[Fuc(a1-6)]GlcNAc
Outline: as §1

[30] = target: Gal(b1-4)GlcNAc(b1-3)Gal(b1-4)GlcNAc(b1-3)Gal(b1-4)GlcNAc
Outline: as §1

[31] = target: Gal(b1-4)GlcNAc(b1-3)Gal(b1-4)GlcNAc(b1-3)Gal(b1-4)GlcNAc(b1-2)Man(a1-3)[Gal(b1-4)GlcNAc(b1-3)Gal(b1-4)GlcNAc(b1-3)Gal(b1-4)GlcNAc(b1-2)Man(a1-6)]Man(b1-4)GlcNAc(b1-4)GlcNAc
Outline: as §1

[32] = target: Gal(b1-4)GlcNAc(b1-3)Gal(b1-4)GlcNAc(b1-3)Gal(b1-4)GlcNAc(b1-2)Man(a1-3)[Gal(b1-4)GlcNAc(b1-3)Gal(b1-4)GlcNAc(b1-3)Gal(b1-4)GlcNAc(b1-2)Man(a1-6)]Man(b1-4)GlcNAc(b1-4)[Fuc(a1-6)]GlcNAc
Outline: as §1

[33] = target: Gal(b1-4)GlcNAc(b1-3)Gal(b1-4)GlcNAc(b1-3)Gal(b1-4)GlcNAc(b1-2)[Gal(b1-4)GlcNAc(b1-3)Gal(b1-4)GlcNAc(b1-3)Gal(b1-4)GlcNAc(b1-6)]Man(a1-6)[Gal(b1-4)GlcNAc(b1-3)Gal(b1-4)GlcNAc(b1-3)Gal(b1-4)GlcNAc(b1-2)Man(a1-3)]Man(b1-4)GlcNAc(b1-4)[Fuc(a1-6)]GlcNAc
Outline: as §1

[34] = target: Gal(b1-4)GlcNAc(b1-3)Gal(b1-4)GlcNAc(b1-3)Gal(b1-4)GlcNAc(b1-3)Gal(b1-4)GlcNAc(b1-2)Man(a1-3)[Gal(b1-4)GlcNAc(b1-3)Gal(b1-4)GlcNAc(b1-3)Gal(b1-4)GlcNAc(b1-3)Gal(b1-4)GlcNAc(b1-2)Man(a1-6)]Man(b1-4)GlcNAc(b1-4)GlcNAc
Outline: as §1

[35] = target: Gal(b1-4)GlcNAc(b1-3)Gal(b1-4)GlcNAc(b1-3)Gal(b1-4)GlcNAc(b1-3)Gal(b1-4)GlcNAc(b1-2)Man(a1-3)[Gal(b1-4)GlcNAc(b1-3)Gal(b1-4)GlcNAc(b1-3)Gal(b1-4)GlcNAc(b1-3)Gal(b1-4)GlcNAc(b1-2)Man(a1-6)]Man(b1-4)GlcNAc(b1-4)[Fuc(a1-6)]GlcNAc
Outline: as §1

[36] = target: Gal(b1-4)GlcNAc(b1-3)Gal(b1-4)GlcNAc(b1-3)Gal(b1-4)GlcNAc(b1-3)Gal(b1-4)GlcNAc(b1-2)[Gal(b1-4)GlcNAc(b1-3)Gal(b1-4)GlcNAc(b1-3)Gal(b1-4)GlcNAc(b1-3)Gal(b1-4)GlcNAc(b1-6)]Man(a1-6)[Gal(b1-4)GlcNAc(b1-3)Gal(b1-4)GlcNAc(b1-3)Gal(b1-4)GlcNAc(b1-3)Gal(b1-4)GlcNAc(b1-2)Man(a1-3)]Man(b1-4)GlcNAc(b1-4)[Fuc(a1-6)]GlcNAc
Outline: as §1

[37] = target: Gal(b1-4)GlcNAc(b1-3)Gal(b1-4)GlcNAc(b1-3)Gal(b1-4)GlcNAc(b1-3)Gal(b1-4)GlcNAc(b1-3)Gal(b1-4)GlcNAc(b1-2)Man(a1-3)[Gal(b1-4)GlcNAc(b1-3)Gal(b1-4)GlcNAc(b1-3)Gal(b1-4)GlcNAc(b1-3)Gal(b1-4)GlcNAc(b1-3)Gal(b1-4)GlcNAc(b1-2)Man(a1-6)]Man(b1-4)GlcNAc(b1-4)GlcNAc
Outline: as §1

B1: GST-Gap1 (Streptococcus parasanguinis), A1C3L5 (protein)
chain: MFYFVPSWYNGQRQWYYDTPWWFRVKNRMTFDDSVNQVKMFLQGQEEIGLMILNYQPQLRYFLHKQNIFGIYYWSFFDDIQNITRSYTKIIHLKDLNWPEGCEFLYSPFAVVVRLKGEIFAIVNYAEDGNLHSVSFQKNGKVTKDYIFDDRGFLSSILYYDIDERPLYQDYLNINGVWQVREFLKKENDPTPILMINDFSDQTFSKKYYNGWEELIKERLAIFQNNHVENEDVFVLASDTQHNQLVSSIFKEHRKIYSFFGNRFNLENLGQDRISINDATFLVVDTEKNEELLRKTCENLVFKSIPIVRLSPFDSRLRLGHSQTVKEQIIYFHIDNIELDELYSVIAIILELMTLHLDIELRIVTFRQDFQLDLLKTWIIDFIKTNHFEDLLFKQISEGENEIEDEGEIELSRIAMECFTNENQIIKCLDTARLVIDLGIEPDLYTQIASISAGIPQINRVSSDYVIHQKNGLVISDISKLSSAIEFYFDGLFNWNEALIYAVRKMSDYTSGKILKQWKGMLKKK
- glycan array binding signal (z-score) [1]: -0.326
- glycan array binding signal (z-score) [2]: 0.353
- glycan array binding signal (z-score) [3]: -0.046
- glycan array binding signal (z-score) [4]: 0.942
- glycan array binding signal (z-score) [5]: -0.639
- glycan array binding signal (z-score) [6]: -1.06
- glycan array binding signal (z-score) [7]: -0.399
- glycan array binding signal (z-score) [8]: -1.19
- glycan array binding signal (z-score) [9]: -0.016
- glycan array binding signal (z-score) [10]: 1.07
- glycan array binding signal (z-score) [11]: 0.064
- glycan array binding signal (z-score) [12]: -0.328
- glycan array binding signal (z-score) [13]: 0.061
- glycan array binding signal (z-score) [14]: -0.353
- glycan array binding signal (z-score) [15]: -0.809
- glycan array binding signal (z-score) [16]: 0.833
- glycan array binding signal (z-score) [17]: 0.071
- glycan array binding signal (z-score) [18]: 0.424
- glycan array binding signal (z-score) [19]: 1.31
- glycan array binding signal (z-score) [20]: 0.726
- glycan array binding signal (z-score) [21]: 0.134
- glycan array binding signal (z-score) [22]: -0.862
- glycan array binding signal (z-score) [23]: 0.244
- glycan array binding signal (z-score) [24]: -0.33
- glycan array binding signal (z-score) [25]: -0.46
- glycan array binding signal (z-score) [26]: 4.81
- glycan array binding signal (z-score) [27]: 1.2
- glycan array binding signal (z-score) [28]: 0.661
- glycan array binding signal (z-score) [29]: 2.87
- glycan array binding signal (z-score) [30]: -0.603
- glycan array binding signal (z-score) [31]: 0.63
- glycan array binding signal (z-score) [32]: 1.03
- glycan array binding signal (z-score) [33]: 0.505
- glycan array binding signal (z-score) [34]: 0.621
- glycan array binding signal (z-score) [35]: 0.765
- glycan array binding signal (z-score) [36]: 0.652
- glycan array binding signal (z-score) [37]: -1.02
